These are yes or no findings as the source states them, for the method shown. Some entries that bind do so weakly or less than the wild type.

Binding data for one molecule are collected here from patent US6936584B1, “Mixed amylin activity compounds” (Amylin Pharmaceuticals, Inc., priority 1998, dated 2005).

In this experiment the target is T1, human calcitonin receptors (T47D and MCF7-7 breast carcinoma cells) (human) (UniProt P30988).
T1 sequence (looked up): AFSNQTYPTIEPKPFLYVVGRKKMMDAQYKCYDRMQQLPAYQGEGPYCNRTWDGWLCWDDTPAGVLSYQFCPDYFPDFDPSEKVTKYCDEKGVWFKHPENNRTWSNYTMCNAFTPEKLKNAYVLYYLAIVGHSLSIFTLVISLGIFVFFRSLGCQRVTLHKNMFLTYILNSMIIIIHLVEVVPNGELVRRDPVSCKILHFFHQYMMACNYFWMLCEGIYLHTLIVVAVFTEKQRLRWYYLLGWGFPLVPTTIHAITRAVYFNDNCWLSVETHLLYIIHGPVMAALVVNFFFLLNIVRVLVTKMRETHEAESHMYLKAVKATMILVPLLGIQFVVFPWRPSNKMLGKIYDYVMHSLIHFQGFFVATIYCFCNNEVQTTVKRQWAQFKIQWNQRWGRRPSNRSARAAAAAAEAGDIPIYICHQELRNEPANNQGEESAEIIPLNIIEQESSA
The experiment can be described thus: radioligand competition, T47D cell membranes. In general terms: Loss of bound radioactivity is the signal in a displacement assay; it reports binding, not function.

For the molecule LSTCVLGRLSQELHRLQTYPRTNTGSNTY (Synthetic 29-residue peptide) [Compound 1], the binding entry is “binds”.
